Read-outs that look alike come from different tables or passages of the source. These are yes or no findings as the source states them, for the method shown. Binding seen in cells or lysates may run through a third protein. These calls come from enrichment with a bait or labelling near it, and not all partners need be listed. Where a sequence is shown, tags or fusion partners need not be part of it.

By UniProt entry, the sequences of proteins in these tests, tags left out. Where a name states a change or a piece, a line headed by the entry shows the natural chain unless it says otherwise.
UniProt O95071: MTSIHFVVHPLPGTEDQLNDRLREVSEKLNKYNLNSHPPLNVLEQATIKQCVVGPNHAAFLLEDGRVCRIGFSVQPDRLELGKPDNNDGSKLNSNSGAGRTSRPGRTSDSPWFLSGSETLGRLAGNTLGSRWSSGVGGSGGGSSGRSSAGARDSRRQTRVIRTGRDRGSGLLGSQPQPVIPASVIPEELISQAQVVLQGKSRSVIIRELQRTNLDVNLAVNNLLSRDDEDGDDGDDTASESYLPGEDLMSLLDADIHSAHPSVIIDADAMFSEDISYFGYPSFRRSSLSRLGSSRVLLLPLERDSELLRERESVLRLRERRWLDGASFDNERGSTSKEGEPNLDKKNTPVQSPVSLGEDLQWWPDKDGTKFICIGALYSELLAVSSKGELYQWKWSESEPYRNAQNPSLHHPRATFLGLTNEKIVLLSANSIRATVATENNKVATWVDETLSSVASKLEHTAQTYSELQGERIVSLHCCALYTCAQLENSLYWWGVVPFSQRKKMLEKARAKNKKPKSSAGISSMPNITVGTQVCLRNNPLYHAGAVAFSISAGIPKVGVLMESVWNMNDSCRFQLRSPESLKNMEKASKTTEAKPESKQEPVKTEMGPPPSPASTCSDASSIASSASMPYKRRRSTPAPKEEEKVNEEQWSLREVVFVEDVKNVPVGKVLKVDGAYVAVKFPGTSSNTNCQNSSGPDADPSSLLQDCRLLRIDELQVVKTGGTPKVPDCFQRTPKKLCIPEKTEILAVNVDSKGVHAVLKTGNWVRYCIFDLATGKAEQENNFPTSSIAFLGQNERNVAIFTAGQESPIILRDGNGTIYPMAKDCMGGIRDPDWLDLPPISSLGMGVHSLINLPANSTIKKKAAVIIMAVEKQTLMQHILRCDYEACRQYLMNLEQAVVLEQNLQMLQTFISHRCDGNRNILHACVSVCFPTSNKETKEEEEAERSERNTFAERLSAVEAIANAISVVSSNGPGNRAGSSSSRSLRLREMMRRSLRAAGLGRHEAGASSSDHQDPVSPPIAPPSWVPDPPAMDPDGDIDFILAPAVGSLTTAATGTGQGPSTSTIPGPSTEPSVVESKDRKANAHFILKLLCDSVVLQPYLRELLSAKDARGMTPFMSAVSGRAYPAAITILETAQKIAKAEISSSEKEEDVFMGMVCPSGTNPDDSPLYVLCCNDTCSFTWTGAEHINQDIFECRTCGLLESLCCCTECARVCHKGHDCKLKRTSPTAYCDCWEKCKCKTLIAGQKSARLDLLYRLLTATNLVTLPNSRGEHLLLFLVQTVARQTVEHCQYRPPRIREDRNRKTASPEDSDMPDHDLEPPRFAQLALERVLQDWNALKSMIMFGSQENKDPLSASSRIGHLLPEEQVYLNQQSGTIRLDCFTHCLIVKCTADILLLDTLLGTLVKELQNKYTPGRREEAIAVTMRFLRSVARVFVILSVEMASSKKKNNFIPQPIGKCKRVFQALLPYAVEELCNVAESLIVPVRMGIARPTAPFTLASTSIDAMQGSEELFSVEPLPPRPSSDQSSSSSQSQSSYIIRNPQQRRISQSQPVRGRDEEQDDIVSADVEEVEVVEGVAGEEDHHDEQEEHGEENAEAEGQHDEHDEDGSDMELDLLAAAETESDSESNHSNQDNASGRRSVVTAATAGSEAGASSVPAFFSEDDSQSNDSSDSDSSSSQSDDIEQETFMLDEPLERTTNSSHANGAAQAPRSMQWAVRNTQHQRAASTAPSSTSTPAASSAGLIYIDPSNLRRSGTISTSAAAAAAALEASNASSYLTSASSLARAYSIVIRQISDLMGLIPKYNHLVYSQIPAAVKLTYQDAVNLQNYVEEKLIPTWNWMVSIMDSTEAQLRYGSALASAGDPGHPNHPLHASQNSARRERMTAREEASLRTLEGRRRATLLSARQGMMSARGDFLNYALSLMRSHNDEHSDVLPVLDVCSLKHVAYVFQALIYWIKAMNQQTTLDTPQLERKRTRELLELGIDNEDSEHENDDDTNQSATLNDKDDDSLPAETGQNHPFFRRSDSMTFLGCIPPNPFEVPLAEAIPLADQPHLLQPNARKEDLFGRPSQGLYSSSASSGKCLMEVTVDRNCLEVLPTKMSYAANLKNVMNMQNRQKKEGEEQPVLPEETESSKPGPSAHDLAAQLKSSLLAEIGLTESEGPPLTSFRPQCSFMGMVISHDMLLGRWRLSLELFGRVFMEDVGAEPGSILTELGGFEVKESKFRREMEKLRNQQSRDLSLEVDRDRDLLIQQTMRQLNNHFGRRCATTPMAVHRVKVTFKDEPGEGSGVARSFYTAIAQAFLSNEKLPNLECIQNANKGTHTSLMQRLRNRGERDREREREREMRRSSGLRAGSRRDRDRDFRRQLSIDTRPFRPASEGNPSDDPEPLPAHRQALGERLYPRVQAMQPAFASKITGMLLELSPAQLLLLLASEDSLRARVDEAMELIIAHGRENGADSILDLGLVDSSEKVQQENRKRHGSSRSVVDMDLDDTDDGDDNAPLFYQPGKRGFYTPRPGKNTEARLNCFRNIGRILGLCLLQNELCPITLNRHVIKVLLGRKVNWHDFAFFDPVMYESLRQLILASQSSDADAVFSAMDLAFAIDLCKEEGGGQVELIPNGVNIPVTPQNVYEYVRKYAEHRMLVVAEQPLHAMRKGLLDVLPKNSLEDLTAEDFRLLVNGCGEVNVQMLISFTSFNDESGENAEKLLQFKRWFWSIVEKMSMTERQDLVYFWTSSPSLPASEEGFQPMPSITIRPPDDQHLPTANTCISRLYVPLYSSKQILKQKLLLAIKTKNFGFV
UniProt P28070: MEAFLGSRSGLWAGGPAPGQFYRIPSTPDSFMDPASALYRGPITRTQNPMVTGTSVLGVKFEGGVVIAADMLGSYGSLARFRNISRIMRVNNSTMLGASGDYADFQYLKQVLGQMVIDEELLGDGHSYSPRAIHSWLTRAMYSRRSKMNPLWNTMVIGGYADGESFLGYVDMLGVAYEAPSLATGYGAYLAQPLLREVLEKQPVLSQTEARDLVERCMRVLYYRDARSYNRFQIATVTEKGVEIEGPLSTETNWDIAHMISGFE
UniProt P49721: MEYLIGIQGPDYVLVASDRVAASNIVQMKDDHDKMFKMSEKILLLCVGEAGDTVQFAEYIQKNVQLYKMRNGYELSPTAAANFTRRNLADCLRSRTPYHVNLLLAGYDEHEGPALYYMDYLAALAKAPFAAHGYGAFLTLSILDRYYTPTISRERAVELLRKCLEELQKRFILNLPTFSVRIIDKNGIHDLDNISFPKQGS
UniProt P25787: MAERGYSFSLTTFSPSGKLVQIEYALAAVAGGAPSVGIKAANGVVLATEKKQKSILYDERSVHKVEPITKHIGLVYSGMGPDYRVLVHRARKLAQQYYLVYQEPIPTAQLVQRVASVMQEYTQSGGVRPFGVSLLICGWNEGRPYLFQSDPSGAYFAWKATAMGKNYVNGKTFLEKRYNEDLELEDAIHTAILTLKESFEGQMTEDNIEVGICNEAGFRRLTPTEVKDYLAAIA
UniProt P46379: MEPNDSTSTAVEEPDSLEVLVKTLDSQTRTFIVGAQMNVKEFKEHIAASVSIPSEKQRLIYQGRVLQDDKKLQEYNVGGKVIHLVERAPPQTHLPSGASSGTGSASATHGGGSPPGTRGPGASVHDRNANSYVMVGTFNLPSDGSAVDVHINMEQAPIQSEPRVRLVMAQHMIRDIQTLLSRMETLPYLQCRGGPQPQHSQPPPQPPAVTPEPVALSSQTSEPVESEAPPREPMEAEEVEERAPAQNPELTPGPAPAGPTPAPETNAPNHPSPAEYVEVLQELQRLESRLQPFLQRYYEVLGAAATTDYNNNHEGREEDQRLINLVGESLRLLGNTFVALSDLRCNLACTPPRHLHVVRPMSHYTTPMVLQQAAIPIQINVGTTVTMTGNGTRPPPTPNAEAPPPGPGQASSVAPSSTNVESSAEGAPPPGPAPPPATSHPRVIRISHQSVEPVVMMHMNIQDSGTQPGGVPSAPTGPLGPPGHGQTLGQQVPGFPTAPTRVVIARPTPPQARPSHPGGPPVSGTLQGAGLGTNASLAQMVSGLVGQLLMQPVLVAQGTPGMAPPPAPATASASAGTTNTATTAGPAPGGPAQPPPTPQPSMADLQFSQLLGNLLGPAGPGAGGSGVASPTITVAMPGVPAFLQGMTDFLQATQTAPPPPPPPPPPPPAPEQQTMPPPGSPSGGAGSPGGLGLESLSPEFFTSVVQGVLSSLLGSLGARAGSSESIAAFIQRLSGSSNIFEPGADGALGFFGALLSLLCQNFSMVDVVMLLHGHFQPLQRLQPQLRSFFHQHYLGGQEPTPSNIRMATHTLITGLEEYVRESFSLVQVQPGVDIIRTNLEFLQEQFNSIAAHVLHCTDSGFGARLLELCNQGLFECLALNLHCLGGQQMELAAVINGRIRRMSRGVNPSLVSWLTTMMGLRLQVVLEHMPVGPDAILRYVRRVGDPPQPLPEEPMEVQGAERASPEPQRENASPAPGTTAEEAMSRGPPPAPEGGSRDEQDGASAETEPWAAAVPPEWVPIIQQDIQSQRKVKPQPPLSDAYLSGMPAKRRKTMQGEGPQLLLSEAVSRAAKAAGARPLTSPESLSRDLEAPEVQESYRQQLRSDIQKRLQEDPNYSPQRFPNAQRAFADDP

Assay [1] concerns the target T1, TPMT A80P-BirA*-FLAG (human) (UniProt P51580).
T1 sequence: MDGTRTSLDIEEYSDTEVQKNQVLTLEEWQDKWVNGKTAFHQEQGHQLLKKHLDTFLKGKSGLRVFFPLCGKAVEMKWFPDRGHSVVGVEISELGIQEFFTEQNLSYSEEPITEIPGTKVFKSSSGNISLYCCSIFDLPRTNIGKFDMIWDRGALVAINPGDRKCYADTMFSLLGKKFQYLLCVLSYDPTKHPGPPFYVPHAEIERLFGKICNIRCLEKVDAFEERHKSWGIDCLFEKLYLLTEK
The experiment in a line: proximity labelling.

The target in assay [2] is T1, TPMT A80P-BirA*-FLAG (human). The experiment in a line: proximity labelling. The source holds these as a separate data set.

“UBR5 (from UniProt O95071 1-2799) (enzyme)”: the binding entry in assay [1] is listed as “binds”. Consider PSMB4 (from UniProt P28070), for which the binding entry in assay [1] is recorded as “binds”. On to “BIRC6 (from UniProt Q9NR09 1-4857) (enzyme)”, for which the binding result in assay [1] is given as “binds”. As for PSMB2 (from UniProt P49721 1-201), the binding result in assay [1] was “binds”. Same read-out and setting: the result for PSMA2 (from UniProt P25787 1-234) reads “binds”; that for BAG6 (from UniProt P46379 1-1132), “binds”.

B1: SGT1 (protein, UniProt Q9Y2Z0 1-365)
chain: MAAAAAGTATSQRFFQSFSDALIDEDPQAALEELTKALEQKPDDAQYYCQRAYCHILLGNYCVAVADAKKSLELNPNNSTAMLRKGICEYHEKNYAAALETFTEGQKLDIETGFHRVGQAGLQLLTSSDPPALDSQSAGITGADANFSVWIKRCQEAQNGSESEVWTHQSKIKYDWYQTESQVVITLMIKNVQKNDVNVEFSEKELSALVKLPSGEDYNLKLELLHPIIPEQSTFKVLSTKIEIKLKKPEAVRWEKLEGQGDVPTPKQFVADVKNLYPSSSPYTRNWDKLVGEIKEEEKNEKLEGDAALNRLFQQIYSDGSDEVKRAMNKSFMESGGTVLSTNWSDVGKRKVEINPPDDMEWKKY
With B1, in assay [2], the binding entry was “binds”.

B2: FKBP5 (protein, UniProt Q13451 1-457)
chain: MTTDEGAKNNEESPTATVAEQGEDITSKKDRGVLKIVKRVGNGEETPMIGDKVYVHYKGKLSNGKKFDSSHDRNEPFVFSLGKGQVIKAWDIGVATMKKGEICHLLCKPEYAYGSAGSLPKIPSNATLFFEIELLDFKGEDLFEDGGIIRRTKRKGEGYSNPNEGATVEIHLEGRCGGRMFDCRDVAFTVGEGEDHDIPIGIDKALEKMQREEQCILYLGPRYGFGEAGKPKFGIEPNAELIYEVTLKSFEKAKESWEMDTKEKLEQAAIVKEKGTVYFKGGKYMQAVIQYGKIVSWLEMEYGLSEKESKASESFLLAAFLNLAMCYLKLREYTKAVECCDKALGLDSANEKGLYRRGEAQLLMNEFESAKGDFEKVLEVNPQNKAARLQISMCQKKAKEHNERDRRIYANMFKKFAEQDAKEEANKAMGKKTSEGVTNEKGTDSQAMEEEKPEGHV
For B2, the binding result in assay [2] is “binds”.

B3: FKBP4 (protein, UniProt Q02790 1-459)
chain: MTAEEMKATESGAQSAPLPMEGVDISPKQDEGVLKVIKREGTGTEMPMIGDRVFVHYTGWLLDGTKFDSSLDRKDKFSFDLGKGEVIKAWDIAIATMKVGEVCHITCKPEYAYGSAGSPPKIPPNATLVFEVELFEFKGEDLTEEEDGGIIRRIQTRGEGYAKPNEGAIVEVALEGYYKDKLFDQRELRFEIGEGENLDLPYGLERAIQRMEKGEHSIVYLKPSYAFGSVGKEKFQIPPNAELKYELHLKSFEKAKESWEMNSEEKLEQSTIVKERGTVYFKEGKYKQALLQYKKIVSWLEYESSFSNEEAQKAQALRLASHLNLAMCHLKLQAFSAAIESCNKALELDSNNEKGLFRRGEAHLAVNDFELARADFQKVLQLYPNNKAAKTQLAVCQQRIRRQLAREKKLYANMFERLAEEENKAKAEASSGDHPTDTEMKEEQKSNTAGSQSQVETEA
For the molecule B3, in assay [2], the binding entry is “binds”.

(Values after doi:10.1101/2024.02.15.580437.)
